Chains of the proteins cited; added tags and fusions are not shown. Lines headed by an entry give the natural chain unless they say otherwise; changes in a name come on top. Residues count along the entry.
UniProt P12830: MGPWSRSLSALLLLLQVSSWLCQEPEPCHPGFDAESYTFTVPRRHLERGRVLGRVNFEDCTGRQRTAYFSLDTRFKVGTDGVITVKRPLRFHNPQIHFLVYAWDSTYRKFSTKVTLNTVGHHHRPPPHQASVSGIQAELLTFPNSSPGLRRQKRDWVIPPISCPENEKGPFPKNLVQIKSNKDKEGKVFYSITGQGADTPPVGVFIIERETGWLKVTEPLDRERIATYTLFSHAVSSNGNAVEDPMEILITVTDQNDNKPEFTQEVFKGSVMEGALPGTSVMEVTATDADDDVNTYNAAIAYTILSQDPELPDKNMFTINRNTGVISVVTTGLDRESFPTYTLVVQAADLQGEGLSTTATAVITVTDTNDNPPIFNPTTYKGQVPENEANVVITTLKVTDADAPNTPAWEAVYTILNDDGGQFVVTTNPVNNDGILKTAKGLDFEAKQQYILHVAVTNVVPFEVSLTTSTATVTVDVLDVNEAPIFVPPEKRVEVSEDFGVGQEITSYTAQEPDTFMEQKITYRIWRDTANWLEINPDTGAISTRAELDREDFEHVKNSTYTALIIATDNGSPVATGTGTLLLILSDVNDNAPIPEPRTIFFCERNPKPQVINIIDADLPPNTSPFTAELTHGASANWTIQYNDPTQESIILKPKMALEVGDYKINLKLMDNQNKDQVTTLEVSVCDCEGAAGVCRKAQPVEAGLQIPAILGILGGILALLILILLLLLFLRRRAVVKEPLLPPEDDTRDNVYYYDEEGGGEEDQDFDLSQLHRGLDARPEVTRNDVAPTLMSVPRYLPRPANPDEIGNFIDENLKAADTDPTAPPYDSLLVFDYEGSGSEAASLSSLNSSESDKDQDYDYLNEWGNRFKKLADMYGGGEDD
UniProt P07585, residues 31-359: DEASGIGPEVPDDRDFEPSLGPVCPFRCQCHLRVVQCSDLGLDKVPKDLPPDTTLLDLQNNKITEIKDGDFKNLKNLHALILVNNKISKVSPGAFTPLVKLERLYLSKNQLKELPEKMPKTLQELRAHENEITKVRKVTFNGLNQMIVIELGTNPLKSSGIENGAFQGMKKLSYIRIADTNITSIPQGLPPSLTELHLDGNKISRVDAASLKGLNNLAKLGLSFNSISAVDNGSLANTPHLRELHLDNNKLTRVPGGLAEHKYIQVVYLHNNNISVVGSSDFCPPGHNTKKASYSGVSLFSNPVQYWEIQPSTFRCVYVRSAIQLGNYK

According to publication PMC7811004:

Legend:
[1] = target: Flag/Strep double-tagged E-cadherin (human) (UniProt P12830); assay: co-IP; HEK293T cells, exogenous tagged proteins, reciprocal immunoprecipitation and immunoblot (Supplementary Fig. 9)
[2] = target: Flag/Strep double-tagged E-cadherin (human) (UniProt P12830); assay: co-IP; IBC cell lines (MDA-IBC3, SUM190, SUM149, BCX010) transfected with HA-tagged DCN or Flag-tagged E-cadherin; whole-cell lysates (1x RIPA buffer); immunoprecipitation with anti-HA or anti-Flag antibody, immunoblot
[3] = target: hemagglutinin (HA)-tagged decorin (DCN), full length (human) (UniProt P07585); assay: co-IP; HEK293T cells, exogenous tagged proteins, reciprocal immunoprecipitation and immunoblot (Supplementary Fig. 9)
[4] = target: hemagglutinin (HA)-tagged decorin (DCN), full length (human) (UniProt P07585); assay: co-IP; IBC cell lines (MDA-IBC3, SUM190, SUM149, BCX010) transfected with HA-tagged DCN or Flag-tagged E-cadherin; whole-cell lysates (1x RIPA buffer); immunoprecipitation with anti-HA or anti-Flag antibody, immunoblot

| Substance | binding [1] | binding [2] | binding [3] | binding [4] |
| --- | --- | --- | --- | --- |
| hemagglutinin (HA)-tagged decorin (DCN), full length (from UniProt P07585 31-359) | binds | binds | – | – |
| Flag/Strep double-tagged E-cadherin (from UniProt P12830) | – | – | binds | binds |

No constants are given. Whether binding was seen depends on the method and setting. Binding seen in cells or lysates may run through a third protein. Binding can be weak; no strength is given.
